PubChem BioAssay AID1259308, NCATS, 2017

Screen: 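Knock-downs that increase output of a recombinant reporter protein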 (primary screen)
Cell system: human HEK293 embryonic kidney cells stably expressing firefly luciferase (HEK-CMV-Luc2-Hygro)
Knock-down reagent: single siRNA against human genes, 0.8 pmol siRNA per well
Duration: 72 h
Measurement: 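Luciferase light (ONE-Glo) measured on one replicate plate set and viability (CellTiter-Glo) on the other, scaled to a negative control siRNA, with robust z-scores and luciferase per cell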
Direction: total luciferase, z-score: higher = more reporter protein produced
Hit rule: 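Active when the median/MAD z-score for overall luciferase is greater than 3; a gene was taken forward for validation with new siRNAs if at least two of its three siRNAs passed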
Calls: active = raised luciferase; inactive = no rise
The deposit covers about 59,000 reagents; below is an unselected part. Over the whole deposit, about 1,510 (2.6%) are marked active. 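Calls use total luciferase alone and ignore viability, so some active siRNAs may act by altering cell number.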 The numbers tell different reagents against one gene apart. Further read-outs or replicates are left out here.

total luciferase, z-score, by gene knocked down and reagent
RPL29P30 (ribosomal protein L29 pseudogene 30): #1 1.06 inactive; #2 2.02 inactive; #3 0.211 inactive
COQ7 (coenzyme Q7, hydroxylase): #1 0.083 inactive; #2 1.81 inactive; #3 0.234 inactive
GANC (glucosidase alpha, neutral C): #1 -0.407 inactive; #2 -0.577 inactive; #3 -1.67 inactive
KLF13 (KLF transcription factor 13): #1 -0.966 inactive; #2 -0.501 inactive; #3 0.475 inactive
TMCO2 (transmembrane and coiled-coil domains 2): #1 -0.947 inactive; #2 0.202 inactive; #3 -0.666 inactive
CMTM6 (CKLF like MARVEL transmembrane domain containing 6): #1 0.612 inactive; #2 -1.78 inactive; #3 0.837 inactive
BACH2 (BACH transcriptional regulator 2): #1 1.08 inactive; #2 1.29 inactive; #3 0.658 inactive
MCAT: #1 2.31 inactive; #2 0.188 inactive; #3 0.988 inactive
